Values quoted from earlier work in patent publication US20070212428A1, “METHODS AND COMPOSITIONS FOR TREATING MOOD DISORDER” (MOOD MANAGEMENT SCIENCES, INC., priority 2004, published 2007).

Experiments:
[1] = cited from earlier work
[2] = tested on: adrenergic (α1, α2, β), cholinergic, GABA, dopaminergic, histaminergic, serotonergic (5-HT1A, 5-HT1B, 5-HT2), or benzodiazepine receptors; conditions: cited from earlier work

Compound | plasma concentrations ([1]; after 30 days of dosing at 40 mg/day) | time to steady state plasma concentrations ([1]; daily dosing) | affinity [2]
CNCCC(Oc1ccc(C(F)(F)F)cc1)c1ccccc1.Cl (racemic) [fluoxetine, (±)-N-methyl-3-phenyl-[(α,α,α-trifluoro-p-tolyl)oxyl]propylamine hydrochloride] | 91 to 302 ng/mL | – | –
CN[C@H]1CC[C@@H](c2ccc(Cl)c(Cl)c2)c2ccccc21.Cl [sertraline, (1S-cis)-4-(3,4-dichlorophenyl)-1,2,3,4-tetrahydro-N-methyl-1-naphthylamine hydrochloride] | – | approximately 1 week | no significant affinity
